Several values for one entry are separate records, joined by “and”; a condition that tells them apart may be missing. Identical values can stand only once. This is one part of the list. The main result of the screen is listed elsewhere. These columns were measured beside it and carry no call. The list favours compounds with an active or inconclusive main result. Words in brackets tell the shape of the fitted curve; partial curves, single points and poor fits give uncertain potencies.

This test in a line: qHTS Assay for Lipid Storage Modulators in Drosophila S3 Cells.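 As to cell number change: cells counted by Cell Tracker Red CMTPX staining in the red channel.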 As to conditions: BODIPY lipid droplet fluorescence, 18-24 h; for cell number change: measured here: cell count max response, cells fed with added oleic acid. A digest of the protocol:
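Laser-scanning cytometry quantifies lipid droplet accumulation (500–530 nm total intensity; droplet/cell object ratio) in oleic acid-fed (400 uM added) Drosophila S3 cells treated with a concentration series. 20 uM Triacsin C defined 100% inhibition.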
On the technique in general: Quantitative high-throughput screening tests each substance at several concentrations.

The mark [1] stands for this setting: measured here: lipid fluorescence (Fed channel) AC50, cells fed with added oleic acid.
Setting [2] is: measured here: cell number channel AC50, cells fed with added oleic acid.

By AC50 is commonly meant the concentration giving half of the maximal activity seen. Lower therefore signals greater potency. For `CC1(C)Cc2c(sc3c2c2ncnn2c2nnc(SCC(=O)NCc4ccco4)n32)CO1`, the cell number change worked out at 4.97%. For the same compound, under setting [1], the half-maximal activity concentration (AC50) is 3.66 µM [falling, single point].

As to `COc1ccc2c(c1)O[C@@H](c1cccc(C(F)(F)F)c1)[C@H](OC(=O)Nc1ccc(OC(F)F)cc1)C2=O`, the cell number change is -11.5%. As for `CCCn1c(SCC(=O)NCCc2ccccc2)nnc1-c1cccnc1`, the cell number change was determined as 2.82%. The AC50 under setting [1] was 2.31 µM [rising, full curve, poor fit]. Consider `COc1ccc2ccccc2c1/C=N/Nc1cccc(C(=O)O)c1`, for which the cell number change was -23.6%. As to `CCNC(=O)OCCC12CC3CC(CC(C3)C1)C2`, the cell number change was -32.2%. The AC50 under setting [2] was 13 µM [falling, single point]. Moreover, the AC50 under setting [1] is 16.4 µM [falling, partial curve]. Regarding `CC(C)(CO)NCc1cccs1`, the cell number change was 3.73%. The AC50 under setting [1] was 18.4 µM [rising, single point].

In the case of `O=C(NCCC1=CCCCC1)c1ccc(Cl)c(S(=O)(=O)N2CCOCC2)c1`, under setting [1], the AC50 is 0.231 µM [falling, full curve].

As to `COC(=O)C(NC(=O)c1ccc(F)cc1)(Nc1nc(C)cs1)C(F)(F)F` (stereo not given), under setting [2], the AC50 was 2.31 µM [rising, partial curve].

As to `COc1ccc([N+](=O)[O-])cc1NC(=O)C(C)N(C)Cc1ccc(Br)cc1` (stereo not given), the cell number change came to 9.05%. Further, under setting [2], the AC50 was 2.06 µM [falling, partial curve, poor fit]. Regarding `CCOC(=O)c1nc(C)n(-c2cc(Cl)cc(Cl)c2)n1`, the cell number change is 30.9%. Further, the AC50 under setting [2] is 16.4 µM [rising, single point]. In addition, the AC50 under setting [1] is 29.1 µM [rising, single point]. For `N=c1n(-c2ccccc2)c(O)cc(=O)n1-c1ccccc1`, the cell number change was -9.2%. Further, the AC50 under setting [1] is 1.03 µM [falling, full curve, poor fit].

Take `CC(OC(=O)Cc1ccc(F)cc1)C(=O)N1CCc2ccccc21` (stereo not given): the cell number change is -50%. Moreover, under setting [2], the AC50 is 3.66 µM [falling, full curve]. Consider `CCCC(C)c1nnc(NC(=O)C2CC(=O)N(CCc3ccc(F)cc3)C2)s1` (stereo not given), for which the cell number change was found to be 16.1%. In addition, the AC50 under setting [1] was 0.58 µM [falling, single point]. For the compound `CN(CC(=O)Nc1cccc(S(=O)(=O)NC2=NCCCCC2)c1)Cc1ccc(C(C)(C)C)cc1`, under setting [2], the AC50 was 6.51 µM [rising, single point]. On to `Cc1ccn(CCC(=O)NC2CCCc3c2cnn3-c2cccc(C)c2C)n1` (stereo not given), for which the cell number change was -7.65%. In addition, the AC50 under setting [1] is 6.51 µM [rising, single point].

As to `CC(=O)c1sc(Nc2cccc(C)c2)nc1C`, the cell number change is -51.7%. Also, the AC50 under setting [2] is 0.116 µM [falling, full curve, poor fit]. For the same compound, the AC50 under setting [1] is 0.116 µM [falling, full curve, poor fit]. For the compound `CCc1nc2ccccc2c(C(=O)OCCN2C(=O)c3ccccc3C2=O)c1C`, the cell number change was found to be 19.8%. For the same compound, under setting [2], the AC50 was 2.06 µM [rising, single point]. On to `CC(C)OC(=O)C1C2C=CC3(CN(CC4CCCO4)C(=O)C13)O2` (stereo not given), for which the cell number change was -18.7% and -24.9%. In addition, the AC50 under setting [1] is 29.1 µM [falling, single point] and 18.4 µM [falling, partial curve].

On to `O=C(NCCN1C(=O)S/C(=C\c2ccccc2F)C1=O)C1CCCN1C(=O)c1cccs1` (stereo not given), for which the cell number change was -1.44%. As to `Cc1cccc([C@@H]2[C@@H]3C(=O)N(Cc4ccccc4)C(=O)[C@@H]3[C@]3(Cc4ccc(Cl)cc4)C(=O)N(c4cccc(Br)c4)C(=O)N23)c1`, the cell number change came out at 98.2%. In addition, under setting [2], the AC50 is 23.1 µM [rising, partial curve]. For `CCc1cc(C(=O)c2ccc(Br)cc2)c(NC(=O)CN(CC)CC)s1`, the cell number change stood at 0.525%. Moreover, under setting [1], the AC50 is 29.1 µM [rising, single point]. For `CS(=O)(=O)N(CC(=O)Nc1ccc(Br)cc1F)C1CCCCC1`, the cell number change is -24.6%. For the same compound, the AC50 under setting [1] was 29.1 µM [falling, single point]. For `Cc1ccc(-c2nnc(NCc3nc4ccccc4[nH]3)c3ccccc23)cc1S(=O)(=O)N(C)C`, the cell number change was -18.7%. Moreover, the AC50 under setting [1] was 32.6 µM [falling, single point]. As for `O=C(OCc1c(Cl)cccc1Cl)c1cccnc1Cl`, the AC50 under setting [1] was 2.31 µM [rising, single point]. Take `CCOc1ccc(NC(=S)NC(=O)Cc2ccccc2)cc1`: the cell number change was determined as 21.2%. On to `O=C(CN1CCCCC1)Nc1ccccc1Cl`, for which the cell number change was determined as 4.53%. On to `Cc1ccccc1NC(=O)c1sc2nc[nH]c(=O)c2c1C`, for which, under setting [2], the concentration at half-maximal activity (AC50) was 0.116 µM [falling, partial curve, poor fit].

For the compound `Cc1nnc(NC(=O)CSc2nnc(-c3ccco3)o2)s1`, the cell number change is -1.78%. For the same compound, under setting [1], the AC50 is 0.146 µM [falling, full curve, poor fit]. In the case of `O=C(CN1C(=O)c2ccccc2C1=O)NCCc1c[nH]c2ccccc12`, the cell number change is -5.49%. On to `COc1ccccc1N=NC1C(=O)N(C(N)=S)N=C1C` (stereo not given), for which the cell number change is -16.7%. Besides, the AC50 under setting [1] was 29.1 µM [falling, single point]. On to `O=C(O)C1CCN(S(=O)(=O)/C=C/c2ccccc2)CC1`, for which the cell number change was determined as 16.4%. The AC50 under setting [1] was 25.9 µM [falling, partial curve]. On to `CCOc1ccc2c(c1)C(C)=CC(C)(C)N2`, for which the cell number change is -11.3%. Consider `COc1ccc2sc(-c3ccccc3OC)c(C#CC(C)(C)O)c2c1`, for which the cell number change was determined as 14%. Further, the AC50 under setting [1] was 0.00517 µM [rising, full curve, poor fit]. As to `Cc1csc(SCCn2c(N3CCCC3)nc3c2c(=O)[nH]c(=O)n3C)n1`, the AC50 runs as follows: under setting [2], 2.31 µM [rising, partial curve]; under setting [1], 1.84 µM [rising, full curve]. For `CCC(=O)N1CCc2cc(S(=O)(=O)NCCC(=O)Nc3cc(C)cc(C)c3)ccc21`, the AC50 under setting [1] is 0.0184 µM [rising, full curve, poor fit]. Turning to `C#CCOc1ccccc1CNc1ccccc1`, the cell number change is 0.244%. Under setting [1], the concentration at half-maximal activity (AC50) is 8.2 µM [rising, partial curve].

In the case of `Cc1ccc(C(O)P(=O)(OCCC(C)C)c2ccc(N(C)C)cc2)cc1` (stereo not given), the cell number change was -36.5%.

Turning to `CCC(C)(C(=O)NC1CCCC1)N(C(=O)c1cnccn1)c1ccccc1` (stereo not given), the cell number change came out at 8.26%. For the compound `COC(=O)/C=C\C(=O)Nc1cccc([N+](=O)[O-])c1`, the cell number change is -37.7%. For the same compound, the AC50 under setting [2] is 3.66 µM [falling, full curve]. Also, the AC50 under setting [1] was 2.59 µM [falling, full curve]. For the compound `COc1ccccc1NC(=O)NC1(C(=O)N2CCC(C)CC2)CCCCC1`, the cell number change came out at 7.26%. The AC50 under setting [1] was 29.1 µM [rising, single point]. As to `Cc1onc(-c2ccccc2)c1C(=O)NC(=S)Nc1sc2c(c1C#N)CCCC2`, the cell number change is -43.3%. The AC50 under setting [2] was 1.03 µM [falling, full curve, poor fit]. Further, the half-maximal activity concentration (AC50) under setting [1] is 2.06 µM [rising, partial curve]. Take `COc1ccc(N/C(=C/[N+](=O)[O-])SC)cc1`: the AC50 under setting [1] was 1.03 µM [falling, single point]. Consider `COc1ccc(-c2nc(N)n[nH]2)cc1`, for which the cell number change is 6.29%. With `CC(=O)c1cccc(OCc2cc(C(=O)NCc3nc(C)c(C)s3)no2)c1`, the cell number change was -27.2%. Besides, under setting [1], the AC50 was 6.51 µM [rising, single point]. In the case of `O=C(C1CCC(CNc2c(N3CCCCC3)c(=O)c2=O)CC1)N1CCCCC1` (stereo not given), the cell number change was found to be 5.5%. Turning to `CCCc1ccc(OCCNC(=O)CC)cc1`, the cell number change came to 2.77%. Besides, the AC50 under setting [1] is 6.51 µM [rising, partial curve].

Turning to `CS(=O)(=O)c1ccc(Sc2nc3ccccc3s2)c([N+](=O)[O-])c1`, the cell number change is -35.3%. Besides, the AC50 under setting [2] was 4.61 µM [falling, partial curve]. In addition, the AC50 under setting [1] was 2.91 µM [falling, full curve, poor fit]. As for `Cc1[nH]c(C)c(C(=O)O)c1CNC1CCCCC1C` (stereo not given), the cell number change is -11.1%. Take `O=C(C1CCN(S(=O)(=O)c2ccc(F)cc2)CC1)N1CCCC(C(F)(F)F)C1` (stereo not given): the AC50 was 3.66 µM [falling, partial curve] under setting [2] and 0.00461 µM [falling, full curve, poor fit] under setting [1].

Regarding `Cc1oc(C(=O)O)cc1COc1ccc2c(C)cc(=O)oc2c1`, the cell number change was 9.04%. For the same compound, the AC50 under setting [1] is 4.61 µM [falling, single point].

For the compound `O=C(O)c1ccc(CSc2nnc(-c3cccnc3)n2-c2ccc(Br)cc2)cc1`, the AC50 under setting [1] is 0.092 µM [rising, full curve, poor fit].

On to `COc1ccc(/C=N/OCC(=O)NC(c2ccccc2)c2ccccc2)cc1OC`, for which the cell number change was -36%. Further, the AC50 under setting [2] is 7.31 µM [falling, partial curve]. For the same compound, the AC50 under setting [1] was 4.11 µM [falling, full curve]. Take `CC(=O)Nc1ccc(S(=O)(=O)Nc2ccccc2N2CCOCC2)cc1`: the cell number change was -6.48%. Further, the concentration at half-maximal activity (AC50) under setting [1] is 29.1 µM [rising, single point]. Consider `COc1ccc(-c2nc(-c3ccccc3)ncc2S(C)(=O)=O)cc1`, for which the AC50 under setting [1] was 20.6 µM [rising, partial curve].

Consider `O=C(Nc1cccc(F)c1)N1CC=C(c2ccc(Cl)cc2)CC1`, for which the cell number change is -66.3%. Also, the AC50 under setting [2] was 32.6 µM [falling, partial curve, poor fit]. As for `Cc1nnc(-c2cnn(C)c2N)n1Cc1ccc2c(c1)OCO2`, the cell number change amounted to 7.38%. In addition, the AC50 under setting [1] was 0.116 µM [rising, full curve, poor fit].

Regarding `Cc1nc2sccn2c(=O)c1S(=O)(=O)N1CCN(c2ccccc2)CC1`, the cell number change is -3.17%. Moreover, the AC50 under setting [1] was 6.51 µM [rising, single point].

With `O=C(c1cc([N+](=O)[O-])ccc1N1CCCC1)N1CCCC1`, the cell number change was -44.5%. In addition, the AC50 under setting [2] was 20.6 µM [falling, single point]. `COc1cc2c(cc1OC)C(c1ccc(-c3cc(Cl)ccc3Cl)o1)=NCC2`: the cell number change is -15%. Moreover, the AC50 under setting [2] was 0.92 µM [falling, full curve]. Under setting [1], the half-maximal activity concentration (AC50) was 0.58 µM [falling, full curve]. For `Cc1cc(/C=C2\C(=N)N3N=C(c4ccco4)SC3=NC2=O)c(C)n1Cc1ccccc1`, the cell number change was 0.877%. Also, under setting [2], the AC50 was 0.259 µM [falling, partial curve, poor fit]. For `NC(=O)c1ccc(NC(=O)CN2CCN(c3ccc(Cl)cc3)CC2)cc1`, the half-maximal activity concentration (AC50) under setting [2] was 0.326 µM [rising, single point].

As to `CC(=O)Nc1ccc2nc(SCC(=O)O)sc2c1`, the cell number change stood at 3.31%. With `CCOC(=O)n1c(=O)oc2cc(S(=O)(=O)N3CCOCC3)ccc21`, the cell number change stood at 4.56%.

The values above are taken from PubChem BioAssay AID2685 (National Center for Advancing Translational Sciences (NCATS), 2010).
